{"source": "PubChem BioAssay AID2685", "about": "(National Center for Advancing Translational Sciences (NCATS), 2010)", "assay": "qHTS Assay for Lipid Storage Modulators in Drosophila S3 Cells;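 as to cell number change: cells counted by Cell Tracker Red CMTPX staining in the red channel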", "details": "BODIPY lipid droplet fluorescence, 18-24 h; for cell number change: measured here: cell count max response, cells fed with added oleic acid", "outline": "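Drosophila S3 cells loaded with oleic acid (400 uM, as added) and compounds at several concentrations; lipid droplets imaged by 488-nm laser-scanning cytometry, 500–530 nm intensity and object ratio to cell channel. Percent activity normalized to 20 uM Triacsin C.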", "key": {"[1]": {"details": "measured here: lipid fluorescence (Fed channel) AC50, cells fed with added oleic acid"}, "[2]": {"details": "measured here: cell number channel AC50, cells fed with added oleic acid"}}, "note": "The other results are listed elsewhere or left out. The main result of the screen is listed elsewhere. These columns were measured beside it and carry no call. Compounds called inactive in the main read-out are mostly missing here. Words in brackets tell the shape of the fitted curve; partial curves, single points and poor fits give uncertain potencies.", "data": [{"smiles": "CCc1c(O)nc(SCc2ccc(F)cc2)[nH]c1=O", "values": [{"measurement": "cell number change", "result": 18.5, "unit": "%"}, {"measurement": "AC50", "setting": "[1]", "result": "8.2 µM [rising, partial curve, poor fit]"}]}, {"smiles": "Cc1onc(-c2ccccc2Cl)c1-c1nc(-c2ccncc2)no1", "values": [{"measurement": "AC50", "setting": "[1]", "result": "5.8 µM [rising, partial curve]"}]}, {"smiles": "Cc1cc(C(=O)NCc2ccc(S(N)(=O)=O)cc2)ccc1[N+](=O)[O-]", "values": [{"measurement": "cell number change", "result": 11.5, "unit": "%"}, {"measurement": "AC50", "setting": "[1]", "result": "6.51 µM [falling, single point]"}]}, {"smiles": "CCN(CC)CCn1c2ccccc2c2cnc(N=CN(C)C)c(C#N)c21", "values": [{"measurement": "cell number change", "result": -17.3, "unit": "%"}]}, {"smiles": "O=C(NC1CCN(Cc2ccccc2)CC1)C1CCCN(S(=O)(=O)c2cccc3nonc23)C1", "note": "(stereo not given)", "values": [{"measurement": "cell number change", "result": -4.83, "unit": "%"}]}, {"smiles": "CCOc1cc(/C=N/NC(=O)C(=O)N2CCCC2)ccc1O", "values": [{"measurement": "cell number change", "result": 7.77, "unit": "%"}, {"measurement": "AC50", "setting": "[2]", "result": "5.17 µM [falling, single point]"}]}, {"smiles": "COc1ccc(C(=O)NCC(=O)N2CCC(Cc3ccccc3)CC2)cc1OC", "values": [{"measurement": "cell number change", "result": 23.7, "unit": "%"}]}, {"smiles": "CCOc1ccc(C(=O)N(CC(=O)Nc2cccc(C)c2C)CC2CCCO2)cc1OC", "note": "(stereo not given)", "values": [{"measurement": "cell number change", "result": -20.2, "unit": "%"}, {"measurement": "AC50", "setting": "[1]", "result": "0.461 µM [falling, partial curve]"}]}, {"smiles": "COc1ccc(C(=O)NCCCc2nc3ccccc3n2Cc2ccccc2C)cc1OC", "values": [{"measurement": "cell number change", "result": 9.5, "unit": "%"}, {"measurement": "AC50", "setting": "[1]", "result": "1.64 µM [rising, partial curve]"}]}, {"smiles": "Cc1sc2ncnc(SCC(=O)N3CCCC3=O)c2c1C", "values": [{"measurement": "AC50", "setting": "[2]", "result": "6.51 µM [rising, single point]"}]}, {"smiles": "Cc1ccc(S(=O)(=O)NCc2cn3c(C)csc3n2)cc1", "values": [{"measurement": "AC50", "setting": "[2]", "result": "2.31 µM [rising, single point]"}]}, {"smiles": "Cc1nc2ccc(S(=O)(=O)NCC(=O)O)cc2s1", "values": [{"measurement": "cell number change", "result": -4.98, "unit": "%"}, {"measurement": "AC50", "setting": "[1]", "result": "25.9 µM [falling, partial curve]"}]}, {"smiles": "O=C(NCCc1ccc(Cl)cc1)c1n[nH]c2ccccc12", "values": [{"measurement": "AC50", "setting": "[1]", "result": "6.51 µM [rising, single point]"}]}, {"smiles": "CCN(CC)c1ccc(/C=C2\\SC(=O)N(C(C)C)C2=O)o1", "values": [{"measurement": "cell number change", "result": -58, "unit": "%"}, {"measurement": "AC50", "setting": "[2]", "result": "16.4 µM [falling, partial curve]"}, {"measurement": "AC50", "setting": "[1]", "result": "8.2 µM [falling, partial curve]"}]}, {"smiles": "Cc1cccc(NC(=O)c2ccc(NCC3CCCO3)c([N+](=O)[O-])c2)c1", "note": "(stereo not given)", "values": [{"measurement": "cell number change", "result": 22.5, "unit": "%"}, {"measurement": "AC50", "setting": "[1]", "result": "32.6 µM [falling, single point]"}]}, {"smiles": "Fc1ccccc1Cn1cc(C(=S)N2CCOCC2)c2ccccc21", "values": [{"measurement": "cell number change", "result": -6.05, "unit": "%"}]}, {"smiles": "CCC(C)NC(=O)C1CCCCN1S(=O)(=O)c1ccc(F)cc1", "note": "(stereo not given)", "values": [{"measurement": "cell number change", "result": 7.37, "unit": "%"}, {"measurement": "AC50", "setting": "[2]", "result": "0.651 µM [falling, single point]"}]}, {"smiles": "CS(=O)(=O)C1=NSC2=NC(=O)/C(=C\\c3ccc(OS(=O)(=O)c4ccccc4)cc3)C(=N)N21", "values": [{"measurement": "cell number change", "result": 14.5, "unit": "%"}, {"measurement": "AC50", "setting": "[1]", "result": "23.1 µM [rising, single point]"}]}, {"smiles": "CCOC(=O)c1cnc2c(C(=O)OC)cccc2c1NCc1ccco1", "values": [{"measurement": "AC50", "setting": "[1]", "result": "1.84 µM [rising, partial curve]"}]}]}
